Measured values: the supplement of paper PMC11006884
Only a part is listed here, and it is no random draw. Single values of this set are uncertain.

By UniProt entry, the sequences of proteins in these tests, tags left out. Where a name states a change or a piece, a line headed by the entry shows the natural chain unless it says otherwise.
UniProt P29084: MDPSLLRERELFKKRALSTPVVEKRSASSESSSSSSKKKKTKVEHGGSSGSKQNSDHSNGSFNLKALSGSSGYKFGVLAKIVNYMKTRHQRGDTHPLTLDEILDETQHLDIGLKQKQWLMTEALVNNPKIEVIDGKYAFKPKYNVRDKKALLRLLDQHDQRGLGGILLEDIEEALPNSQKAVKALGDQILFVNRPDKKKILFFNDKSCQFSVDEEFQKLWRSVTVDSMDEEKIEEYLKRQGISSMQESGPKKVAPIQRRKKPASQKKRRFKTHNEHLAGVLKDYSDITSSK
UniProt P22234: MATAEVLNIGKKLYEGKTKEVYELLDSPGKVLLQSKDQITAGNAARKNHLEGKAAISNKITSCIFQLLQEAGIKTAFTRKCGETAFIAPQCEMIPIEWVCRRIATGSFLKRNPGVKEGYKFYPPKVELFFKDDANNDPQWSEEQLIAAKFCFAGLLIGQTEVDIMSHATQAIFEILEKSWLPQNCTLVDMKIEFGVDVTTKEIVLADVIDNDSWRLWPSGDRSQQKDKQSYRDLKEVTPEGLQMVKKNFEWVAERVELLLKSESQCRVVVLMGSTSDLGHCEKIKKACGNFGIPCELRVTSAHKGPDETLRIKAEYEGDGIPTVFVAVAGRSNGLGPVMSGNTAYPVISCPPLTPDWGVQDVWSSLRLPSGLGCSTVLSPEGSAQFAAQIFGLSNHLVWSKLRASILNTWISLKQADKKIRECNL
UniProt P28347, whole entry: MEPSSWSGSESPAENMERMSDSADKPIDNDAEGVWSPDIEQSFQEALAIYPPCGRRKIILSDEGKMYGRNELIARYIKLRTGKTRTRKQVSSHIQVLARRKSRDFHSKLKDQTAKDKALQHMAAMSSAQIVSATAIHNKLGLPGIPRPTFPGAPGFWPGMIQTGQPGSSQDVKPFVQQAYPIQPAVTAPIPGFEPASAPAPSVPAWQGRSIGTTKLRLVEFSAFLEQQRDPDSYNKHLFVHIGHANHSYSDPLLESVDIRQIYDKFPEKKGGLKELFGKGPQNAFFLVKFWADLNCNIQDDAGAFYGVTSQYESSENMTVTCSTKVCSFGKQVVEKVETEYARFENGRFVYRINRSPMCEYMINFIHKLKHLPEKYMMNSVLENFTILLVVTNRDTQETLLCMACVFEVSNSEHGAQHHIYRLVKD
UniProt P22102: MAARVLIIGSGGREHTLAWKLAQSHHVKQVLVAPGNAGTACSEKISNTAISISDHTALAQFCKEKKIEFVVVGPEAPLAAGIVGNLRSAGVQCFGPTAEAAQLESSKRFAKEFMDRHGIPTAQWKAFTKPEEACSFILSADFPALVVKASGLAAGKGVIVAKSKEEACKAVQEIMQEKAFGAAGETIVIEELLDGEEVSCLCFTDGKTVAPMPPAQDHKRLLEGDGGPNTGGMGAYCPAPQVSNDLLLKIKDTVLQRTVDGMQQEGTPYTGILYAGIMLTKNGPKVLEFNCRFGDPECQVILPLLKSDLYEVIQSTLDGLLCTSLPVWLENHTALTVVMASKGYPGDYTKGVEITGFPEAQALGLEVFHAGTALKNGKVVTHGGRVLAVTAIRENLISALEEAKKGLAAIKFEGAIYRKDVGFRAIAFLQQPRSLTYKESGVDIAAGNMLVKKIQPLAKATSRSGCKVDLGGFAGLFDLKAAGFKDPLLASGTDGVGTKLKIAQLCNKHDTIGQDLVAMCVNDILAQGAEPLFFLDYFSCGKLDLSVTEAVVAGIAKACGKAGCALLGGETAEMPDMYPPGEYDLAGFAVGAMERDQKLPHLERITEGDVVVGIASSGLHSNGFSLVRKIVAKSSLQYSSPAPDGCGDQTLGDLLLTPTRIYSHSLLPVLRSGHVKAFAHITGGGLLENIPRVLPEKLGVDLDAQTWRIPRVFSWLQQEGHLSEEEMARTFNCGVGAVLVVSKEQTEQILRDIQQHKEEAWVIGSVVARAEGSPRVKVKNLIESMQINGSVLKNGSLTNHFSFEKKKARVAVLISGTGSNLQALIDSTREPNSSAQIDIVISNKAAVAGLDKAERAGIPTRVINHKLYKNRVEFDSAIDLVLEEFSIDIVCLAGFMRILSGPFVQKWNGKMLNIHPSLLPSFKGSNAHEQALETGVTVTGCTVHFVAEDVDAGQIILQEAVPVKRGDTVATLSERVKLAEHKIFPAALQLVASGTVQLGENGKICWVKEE
UniProt P21333, whole entry, looked up: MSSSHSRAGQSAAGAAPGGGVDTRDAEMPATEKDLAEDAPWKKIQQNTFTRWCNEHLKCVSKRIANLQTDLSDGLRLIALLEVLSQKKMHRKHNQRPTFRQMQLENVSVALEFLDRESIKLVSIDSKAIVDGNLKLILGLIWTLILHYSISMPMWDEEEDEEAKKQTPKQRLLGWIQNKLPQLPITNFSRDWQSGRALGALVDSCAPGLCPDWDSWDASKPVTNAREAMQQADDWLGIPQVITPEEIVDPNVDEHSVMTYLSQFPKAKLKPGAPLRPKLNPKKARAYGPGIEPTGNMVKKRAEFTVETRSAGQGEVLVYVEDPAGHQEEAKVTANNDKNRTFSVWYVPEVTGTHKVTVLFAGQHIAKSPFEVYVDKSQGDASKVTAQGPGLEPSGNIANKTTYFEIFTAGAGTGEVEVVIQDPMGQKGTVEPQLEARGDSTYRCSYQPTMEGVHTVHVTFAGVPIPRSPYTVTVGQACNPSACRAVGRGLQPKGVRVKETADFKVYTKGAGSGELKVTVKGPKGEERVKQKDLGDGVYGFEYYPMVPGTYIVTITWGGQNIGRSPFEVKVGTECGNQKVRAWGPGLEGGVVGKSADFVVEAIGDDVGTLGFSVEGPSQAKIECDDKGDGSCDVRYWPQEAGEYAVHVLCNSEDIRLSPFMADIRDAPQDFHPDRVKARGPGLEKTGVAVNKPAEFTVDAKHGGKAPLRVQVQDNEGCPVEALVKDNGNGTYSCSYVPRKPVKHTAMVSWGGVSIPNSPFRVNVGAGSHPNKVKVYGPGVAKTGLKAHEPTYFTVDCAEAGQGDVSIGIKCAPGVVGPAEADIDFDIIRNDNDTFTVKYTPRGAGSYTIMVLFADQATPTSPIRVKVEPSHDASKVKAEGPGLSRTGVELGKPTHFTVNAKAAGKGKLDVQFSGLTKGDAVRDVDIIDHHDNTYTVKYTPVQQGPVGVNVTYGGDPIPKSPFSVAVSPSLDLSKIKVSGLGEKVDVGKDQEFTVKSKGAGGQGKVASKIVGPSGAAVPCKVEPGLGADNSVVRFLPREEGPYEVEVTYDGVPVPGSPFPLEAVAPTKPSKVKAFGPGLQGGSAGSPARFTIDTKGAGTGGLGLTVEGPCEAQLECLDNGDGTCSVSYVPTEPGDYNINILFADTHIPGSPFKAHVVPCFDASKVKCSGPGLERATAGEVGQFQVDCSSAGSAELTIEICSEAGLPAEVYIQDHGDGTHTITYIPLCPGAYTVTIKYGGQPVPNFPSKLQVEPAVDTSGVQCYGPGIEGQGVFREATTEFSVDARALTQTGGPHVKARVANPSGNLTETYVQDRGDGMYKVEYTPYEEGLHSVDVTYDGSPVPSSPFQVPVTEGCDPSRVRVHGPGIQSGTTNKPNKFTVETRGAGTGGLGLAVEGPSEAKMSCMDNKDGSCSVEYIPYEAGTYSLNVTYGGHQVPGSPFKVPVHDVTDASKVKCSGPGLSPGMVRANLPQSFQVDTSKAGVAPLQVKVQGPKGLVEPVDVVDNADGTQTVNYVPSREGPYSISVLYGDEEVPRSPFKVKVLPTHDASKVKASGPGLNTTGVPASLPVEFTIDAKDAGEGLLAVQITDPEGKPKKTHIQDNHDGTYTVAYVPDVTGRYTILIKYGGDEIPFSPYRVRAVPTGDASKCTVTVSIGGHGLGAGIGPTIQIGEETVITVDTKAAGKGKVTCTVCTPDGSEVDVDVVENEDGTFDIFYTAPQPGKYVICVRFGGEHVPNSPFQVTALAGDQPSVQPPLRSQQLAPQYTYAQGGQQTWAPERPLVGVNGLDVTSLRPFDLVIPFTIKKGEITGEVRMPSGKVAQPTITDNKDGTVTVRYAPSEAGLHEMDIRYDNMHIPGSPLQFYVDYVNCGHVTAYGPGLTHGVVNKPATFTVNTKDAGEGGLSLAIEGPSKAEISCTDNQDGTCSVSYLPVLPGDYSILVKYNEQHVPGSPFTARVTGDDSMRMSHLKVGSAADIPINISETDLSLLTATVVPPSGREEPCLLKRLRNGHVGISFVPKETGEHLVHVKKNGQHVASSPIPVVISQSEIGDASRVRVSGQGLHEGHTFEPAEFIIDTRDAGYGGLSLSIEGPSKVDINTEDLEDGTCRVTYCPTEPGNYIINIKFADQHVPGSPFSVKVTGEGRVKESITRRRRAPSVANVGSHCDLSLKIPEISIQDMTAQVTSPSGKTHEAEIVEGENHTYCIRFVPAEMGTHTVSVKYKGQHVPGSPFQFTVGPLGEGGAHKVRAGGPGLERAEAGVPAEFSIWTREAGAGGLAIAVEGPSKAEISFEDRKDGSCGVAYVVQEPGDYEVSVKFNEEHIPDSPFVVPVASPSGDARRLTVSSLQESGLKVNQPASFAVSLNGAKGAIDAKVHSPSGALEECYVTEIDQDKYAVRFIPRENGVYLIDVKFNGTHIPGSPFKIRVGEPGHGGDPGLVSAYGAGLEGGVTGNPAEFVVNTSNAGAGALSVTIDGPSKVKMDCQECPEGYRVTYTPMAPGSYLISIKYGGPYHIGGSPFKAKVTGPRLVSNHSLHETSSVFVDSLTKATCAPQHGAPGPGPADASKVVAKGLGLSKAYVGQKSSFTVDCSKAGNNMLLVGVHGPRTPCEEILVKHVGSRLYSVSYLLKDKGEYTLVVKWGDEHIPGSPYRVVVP
UniProt P30084: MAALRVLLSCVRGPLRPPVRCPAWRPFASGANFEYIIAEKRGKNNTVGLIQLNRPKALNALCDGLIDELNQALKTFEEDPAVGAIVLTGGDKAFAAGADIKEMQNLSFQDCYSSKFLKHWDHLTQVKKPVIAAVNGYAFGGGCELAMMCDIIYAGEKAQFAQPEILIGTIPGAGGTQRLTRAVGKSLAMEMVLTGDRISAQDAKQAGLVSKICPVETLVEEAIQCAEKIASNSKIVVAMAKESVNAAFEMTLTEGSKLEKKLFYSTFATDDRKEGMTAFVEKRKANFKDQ
UniProt P23381: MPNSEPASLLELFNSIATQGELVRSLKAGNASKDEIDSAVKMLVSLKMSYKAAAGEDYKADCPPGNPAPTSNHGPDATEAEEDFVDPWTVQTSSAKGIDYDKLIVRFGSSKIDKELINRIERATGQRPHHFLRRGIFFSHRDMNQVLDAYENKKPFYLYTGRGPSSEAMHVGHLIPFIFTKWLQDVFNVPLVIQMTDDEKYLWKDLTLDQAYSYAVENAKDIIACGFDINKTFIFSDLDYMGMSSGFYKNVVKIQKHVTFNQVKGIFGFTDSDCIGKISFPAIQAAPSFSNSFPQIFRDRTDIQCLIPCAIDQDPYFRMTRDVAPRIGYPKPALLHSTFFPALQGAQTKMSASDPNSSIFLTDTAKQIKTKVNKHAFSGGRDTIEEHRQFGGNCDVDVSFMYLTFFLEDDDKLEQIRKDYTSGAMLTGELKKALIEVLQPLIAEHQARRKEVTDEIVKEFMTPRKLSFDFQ
UniProt P17987, whole entry, looked up: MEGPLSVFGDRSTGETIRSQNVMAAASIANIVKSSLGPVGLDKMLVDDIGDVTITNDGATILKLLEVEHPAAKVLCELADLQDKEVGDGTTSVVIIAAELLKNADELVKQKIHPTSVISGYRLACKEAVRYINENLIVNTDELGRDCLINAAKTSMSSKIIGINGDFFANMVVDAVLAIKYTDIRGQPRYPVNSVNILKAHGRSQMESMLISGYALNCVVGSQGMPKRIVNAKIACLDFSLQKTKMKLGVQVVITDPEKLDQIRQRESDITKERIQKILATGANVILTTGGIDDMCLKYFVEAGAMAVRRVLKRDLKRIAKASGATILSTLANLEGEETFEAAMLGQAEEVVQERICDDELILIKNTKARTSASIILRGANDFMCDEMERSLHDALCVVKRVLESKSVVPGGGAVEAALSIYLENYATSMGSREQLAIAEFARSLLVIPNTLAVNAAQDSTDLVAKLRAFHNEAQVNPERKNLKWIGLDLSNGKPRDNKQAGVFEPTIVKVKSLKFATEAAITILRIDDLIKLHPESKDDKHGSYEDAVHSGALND
UniProt P28482, whole entry, looked up: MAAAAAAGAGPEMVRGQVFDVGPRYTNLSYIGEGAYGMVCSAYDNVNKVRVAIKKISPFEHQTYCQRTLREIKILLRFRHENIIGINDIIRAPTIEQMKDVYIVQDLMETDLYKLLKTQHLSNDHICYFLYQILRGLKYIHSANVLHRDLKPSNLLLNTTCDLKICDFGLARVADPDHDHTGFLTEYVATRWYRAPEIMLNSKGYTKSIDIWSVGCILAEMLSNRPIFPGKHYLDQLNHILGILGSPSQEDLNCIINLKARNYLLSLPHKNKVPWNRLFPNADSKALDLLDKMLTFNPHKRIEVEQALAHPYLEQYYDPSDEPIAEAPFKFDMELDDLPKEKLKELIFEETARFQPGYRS

compound: COC(=O)/C=C/c1ccccc1 [methyl cinnamate]; test: log2 ratio of iodoacetamide-alkyne labeling of the cysteine site, DMSO over compound (competition); higher = stronger covalent engagement of the cysteine by the compound, active = 1 or more; conditions: 500 µM; treatment time 1 h; system: HEK293T cell lysate
In short: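 Reporter intensities give each cysteine's log2 competition ratio as the mean of control channels over the mean of compound channels. The samples were HEK293T lysate (2 mg/mL) given vehicle or electrophile (500 µM, 1 h, ambient temperature), then iodoacetamide alkyne (1 h), followed by click coupling to sCIP-TMT reagents, pooling, trypsin digestion overnight at 37 °C, streptavidin enrichment, acid elution, Orbitrap Eclipse LC-MS/MS with FAIMS and FragPipe quantification. Duplicate channels and three replicates were run, and cysteines quantified in only one replicate were discarded.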

log2 ratio of iodoacetamide-alkyne labeling, inactive:
GTF2E2 C208 (UniProt P29084) -0.23, FECH C411 (UniProt P22830) 0.19, CAST C661 (UniProt P20810) 0.352, DNMT1 C1125 (UniProt P26358) 0.317, VARS C340 (UniProt P26640) -0.15, EEF1D C217 (UniProt P29692) 0.00628, RPL10 C49 (UniProt P27635) -3e-05, ATP6V1B2 C112 (UniProt P21281) 0.0501, SON C1551 (UniProt P18583) 0.291, PAICS C63 (UniProt P22234) -0.129, UniProt P26639_C343 0.104, LIG1 C508 (UniProt P18858) 0.355, TPP2 C28 (UniProt P29144) 0.241, ATP6V1B2 C162 (UniProt P21281) 0.12, RRM1 C26 (UniProt P23921) -0.0588, TEAD1 C53 (UniProt P28347) 0.0297, UniProt P27448_C46 0.149, GART C291 (UniProt P22102) 0.191, FLNA C2479 (UniProt P21333) 0.399, PFKL C351 (UniProt P17858) 0.0942, APC C1387 (UniProt P25054) 0.00762, ANXA7 C285 (UniProt P20073) 0.311, ECHS1 C62 (UniProt P30084) 0.178, NCL C543 (UniProt P19338) 0.156, LMNB1 C317 (UniProt P20700) 0.274, FLNA C717 (UniProt P21333) 0.0726, DDX5 C234 (UniProt P17844) 0.163, CAD C379 (UniProt P27708) 0.0935, WARS C62 (UniProt P23381) 0.0653, UniProt P25705_C244 0.0556, LAP3 C335 (UniProt P28838) -0.0128, MPST C7 (UniProt P25325) 0.432, EEF1G C194 (UniProt P26641) 0.0574, CSRP1 C167 (UniProt P21291) 0.37, TCP1 C357 (UniProt P17987) 0.398, FLNA C1165 (UniProt P21333) 0.373, UniProt P28482_C254 -0.211
